Measurements taken from PubChem BioAssay AID1487 (National Center for Advancing Translational Sciences (NCATS), 2009).
Among all 200,000 compounds or so, about 25 (0.01%) were called active. The shares of active, inactive and inconclusive entries below differ from those in the screen. Calls come from the whole dose curve; as a rule, active = well fitted inhibition curve with a large enough effect in the signal ratio, with a control signal flat (not every such curve was filed as active); inconclusive = small, poorly fitted or top-dose-only effect, or effect the other way, or a change in a side signal; inactive = flat fitted curve, though single readings scatter; the % refers to the signal ratio. Where the call is inconclusive, the potency comes from a doubtful curve fit.

Assay: qHTS Assay for Modulators of Lamin A Splicing
Settings: HeLa LMNA splicing GFP/RFP minigene ratio, 48 h; ratio change, negative = inhibition: at 46.1 µM (top of the series) unless noted
Source text: NCGC Assay Overview: Hutchinson-Gilford Progeria Syndrome (HGPS) is a pediatric premature aging disease caused by a spontaneous mutation in the lamin A/C (LMNA) gene. The mutation activates a cryptic splice site in the LMNA pre-mRNA which results in production of a pre-lamin A protein that cannot be processed properly. The mutant protein accumulates in the nucleus and negatively affects numerous cellular functions. Correction of the splicing defect in HGPS patient cells using a targeted oligonucleotide (exo11) leads to reversal of the cellular disease phenotypes. To identify small molecule modulators of aberrant LMNA splicing, a homogenous assay was constructed in HeLa cells that used a GFP containing minigene to report on correction of aberrant splicing in lamin A and a RFP (DsRed2) to report on cell viability, uniformity and nonspecific effects on the assay signal. This assay was adapted to laser-scanning microplate cytometry (Acumen, TTP Labtech) where miniaturization of the assay to a 1,536-well plate format was possible. References: Bowen, W. P.; Wylie, P. G. Application of Laser-Scanning Fluorescence Microplate Cytometry in High Content Screening. Assay Drug Dev Technol 2006;4:209-221. Scaffidi P, Misteli T. Reversal of the cellular phenotype in the premature aging disease Hutchinson-Gilford progeria syndrome. Nat.
NCGC Assay Protocol Summary: Reagents/Controls: Stable clones expressing DsRed2 and lamin A-EGFP were generated by Cell and Molecular Technologies in S3 HeLa cells. HeLa cells were prepared for the assay when they were 70-90% confluent. The cells were counted and resuspended in Opti-MEM I (no phenol red; Gibco), 2% FBS, 1% penicillin/ streptomycin (Gibco) at concentration of 120 cells/uL concentration. The suspension was passed through a Falcon basket filter with pore size 40um (Beckton Dickson). Control titrations: column […] 1536-well plate contained a sixteen point titration (1:2 dilutions) in duplicate of ancitabine (Sigma: A8598) beginning at 40 uM final concentration. Column 2 contained a sixteen point titration (1:2 dilutions) of cycloheximide beginning at 1.4 mM final concentration. Column 3 contained ancitabine at 40 uM and column 4 contained was the vehicle control (0.5% DMSO final concentration). Assay Steps: 5 uL of HeLa cells were plated in Aurora LoBase black clear bottom (cyclic-olefin polymer) 1536-well plates at a final density of 600 cells/well. Controls and library compounds were added with a 1536-well pin array using the Kalypsys pin-tool. The plates were then incubated for 48 hrs in a cell-culture incubator (37 °C; 5% CO2, 98% humidity). Following incubation the plates were read on the Acumen Explorer using the 488 nm laser. Data was collected on objects between 10 and 100 um in size. Cell objects were defined by a 15 um width x 10 um depth filter. The ratio of the total object intensity in PMT1 (500-530 nm emission; GFP) over PMT3 (575-640 nm emission; RFP) was calculated for analysis. Keywords: NIH Roadmap, MLSCN, MLI, MLSMR, qHTS, NCGC, lamin A, Progeria, RNA splicing.
% is set by controls: 0 for no effect and ±100 for the full control effect; potency is the fitted concentration of half-maximal effect.

Row | Compound | ratio change, negative = inhibition | Potency
1 | CCn1c2c(c3cc(Br)ccc31)CCC/C2=N\O | inconclusive: -2.2% | –
2 | CCOc1ccc2[nH]cc(C(=O)N3CCN(CC)CC3)c(=O)c2c1 | inconclusive: 5.15% | –
3 | COc1ccccc1CNC(=O)C1CCCN(S(=O)(=O)c2ccc3c(c2)CCCN3C(C)=O)C1 (stereo unspecified) | inactive: -4.26% [at 46 µM] | –
4 | CC(C)(Oc1ccc(Cl)cc1)C(=O)NC1=NN(c2ccccc2)C(=O)C1 | inconclusive: -37.4% | –
5 | CCc1ccc(-c2nc(CN3CCC(C(=O)N4CCN(c5ccccn5)CC4)CC3)c(C)o2)cc1 | inconclusive: -37.9% | –
6 | CS(=O)(=O)OCCCCOS(C)(=O)=O | – | inconclusive: 0.794 µM [inhibitor, single point]
7 | N#Cc1c(-c2ccccc2)nc(SCC(=O)NC2CCCCC2)[nH]c1=O | inactive: 0.12% [at 46 µM] | –
8 | Cc1nonc1OCCNCCNc1ccc([N+](=O)[O-])cc1Cl | inconclusive: -14.2% [at 46 µM] | –
9 | CCCCOc1ccc(C(=O)N2CCN(CCc3ccncc3)CC2)cc1 | inactive: 5.7% [at 46 µM] | –
10 | COc1ccc(CCNC(=O)c2csc3c2CCCC3)cc1 | inactive: -27.3% [at 46 µM] | –
11 | COc1ccccc1N1CCN(C(=O)c2nn(-c3ccc(C)cc3)c(=O)n(C)c2=O)CC1 | inactive: 2.9% [at 46 µM] | –
12 | CCCCn1c(=O)[nH]c(=O)c2c1nc(-c1ccc(OCCC)c(OCC)c1)n2CCOC | inactive: -7.1% [at 46 µM] | –
13 | COc1ccc(C(=O)NCC(O)COc2ccc(C(C)(C)C)cc2)cc1[N+](=O)[O-] (stereo unspecified) | – | inconclusive: 35.5 µM [fluorescent, single point]
14 | Cc1ccc(C)c(Cn2cnc3c(nnn3-c3ccc(F)cc3)c2=O)c1 | inconclusive: 5.96% | –
15 | COCn1ccnc1C(O)(c1ccc(OC)cc1)c1ccc(OC)cc1 | inconclusive: -7.58% | –
16 | CC(NC(=O)/C(C#N)=C/c1cn[nH]c1-c1ccccc1)c1ccccc1 (stereo unspecified) | inactive: -4.73% | –
17 | NS(=O)(=O)c1cc(C(=O)NCCOc2ccccc2)c(Cl)cc1Cl | inconclusive: -33.9% | –
18 | COc1cc(OC)c(NC(=O)C2CCCN(c3ncnc4c3nc3n4CCCCC3)C2)cc1Cl (stereo unspecified) | inconclusive: -2.52% [at 46 µM] | –
19 | O=C(COc1ccccc1Cl)NCC1(N2CCOCC2)CCCCC1 | inconclusive: 4.1% [at 46 µM] | –
20 | COc1ccc(OC)c(NC(=O)CSc2nnc(CNC(=O)c3ccco3)o2)c1 | inactive: 4.23% | –
21 | CC(=O)Nc1cccc(NS(=O)(=O)Cc2ccc(Cl)cc2)c1 | inactive: 8.04% | –

Single records, as listed above. Values in the order: ratio change, negative = inhibition	Potency
Cc1ccc(C)c(Cn2cnc3c(nnn3-c3ccc(F)cc3)c2=O)c1 as listed: inconclusive: 5.96%	–
CCCCOc1ccc(C(=O)N2CCN(CCc3ccncc3)CC2)cc1 as listed: inactive: 5.7% [at 46 µM]	–
COc1ccccc1CNC(=O)C1CCCN(S(=O)(=O)c2ccc3c(c2)CCCN3C(C)=O)C1 (stereo unspecified) as listed: inactive: -4.26% [at 46 µM]	–

(continued)

Row | Compound | ratio change, negative = inhibition | Potency
22 | Cc1ccc(S(=O)(=O)Nc2ccc3nc(N)sc3c2)cc1 | – | inconclusive: 15.8 µM [fluorescent, single point]
23 | CC(C)(C)C1CCC(=NNc2nc3ccccc3[nH]2)CC1 (stereo unspecified) | inconclusive: -32.4% [at 46 µM] | –
24 | Cn1c(=O)[nH]c(=O)c2c1nc(N1CCOCC1)n2CCSc1nc2ccccc2[nH]1 | inactive: 8.93% | –
25 | Clc1cccc(-n2ncc3c(N4CCCCC4)ncnc32)c1 | inconclusive: -33.3% [at 46 µM] | –
26 | CCCn1c(SCC(=O)Nc2cc(S(=O)(=O)N3CCOCC3)ccc2Cl)n[nH]c1=O | inconclusive: -12.5% | –
27 | COc1cc(CNCCc2ccccc2F)ccc1OCC(=O)N1CCCCC1 | inconclusive: -2.07% [at 46 µM] | –
28 | CCC1CN(C(=O)N2CCC(C(=O)NCc3cccc(C)c3)CC2)c2ccccc2O1 (stereo unspecified) | inconclusive: 14.8% [at 46 µM] | –
29 | O=C(O)CCCCCNS(=O)(=O)c1ccc2c(c1)OCCO2 | inconclusive: -0.207% [at 46 µM] | –
30 | CCNC(=S)N1CCc2cc(OC)c(OC)cc2C1COc1ccc(F)cc1 (stereo unspecified) | inconclusive: -12.1% [at 46 µM] | –
31 | Cc1sc2nc3c(C(=O)N4CCCC4)cc(C(=O)c4ccccc4O)cn3c(=O)c2c1C | inconclusive: 23.6% [at 46 µM] | –
32 | CC1C/C(=N\NC(=S)NCc2ccccc2)CC(C)(C)C1 (stereo unspecified) | inactive: 12.5% | –
33 | Oc1ccc(Br)cc1/C=N/N1CCCCC1 | inactive: -14.3% | –
34 | CCNc1nc(NC(C)C)nc(N(C#N)CCOc2ccc(Cl)cc2Cl)n1 | inactive: -9.48% | –
35 | COc1cc(Cl)cc(/C=C/c2ccc3ccccc3n2)c1OC(C)=O | inconclusive: -28% | –
36 | Cc1cccc(NC(=O)CSc2ncnc3nc[nH]c23)c1C | inconclusive: 17.3% | –
37 | COc1ccc(S(=O)(=O)NCC2CCC(C(=O)NCCC(C)C)CC2)cc1 (stereo unspecified) | inconclusive: 8.42% | –
38 | CCOC(=O)c1sc2ccc(S(=O)(=O)N3CCCCC3)cc2c1N | inconclusive: -38% | –
39 | Cc1ccc2ncnc(Nc3ccccc3)c2c1 | inconclusive: -18.1% [at 9.22 µM] | –
40 | CCOc1ccc(NC(=O)c2ccc(F)c(S(=O)(=O)N(CC)Cc3ccccc3)c2)cc1 | inconclusive: -10.4% [at 46 µM] | –
41 | CCOc1ccc(CCNC(=O)c2sc3ncccc3c2-n2cccc2)cc1OCC | – | inconclusive: 6.31 µM [inhibitor, partial curve]
42 | COc1cc(CCC(=O)Nc2ccc(Br)c(C(F)(F)F)c2)cc(OC)c1OC | – | inconclusive: 35.5 µM [falling, single point]

Row | Compound | ratio change, negative = inhibition | Potency
43 | Cc1noc(C)c1S(=O)(=O)N1CCC(C(=O)NC2CCCc3ccccc32)CC1 (stereo unspecified) | inactive: -2.71% | –
44 | CCCCc1nn2c(=O)cc(COC(=O)C3CCCCC3)nc2s1 | inactive: 1.68% [at 46 µM] | –
45 | Cc1ccc(NC(=O)C2(c3ccccc3)CC2(Cl)Cl)cc1C (stereo unspecified) | inconclusive: 38.8% | –
46 | Cc1cc(Br)c(NC(=O)CCl)c(Br)c1 | inconclusive: 0.624% | –
47 | CCOC(=O)N1CCN(C(=O)CSc2ccc3nnc(CCNC(=O)c4ccccc4)n3n2)CC1 | inconclusive: 5.44% [at 9.22 µM] | –
48 | CCOC(=O)c1nnc(-c2ccccc2)nc1Sc1ccccc1Cl | – | inconclusive: 35.5 µM [cytotoxic, single point]
49 | O=C(NCc1ccccn1)c1cn(CCc2ccccc2)nn1 | inconclusive: -5.94% | –
50 | COc1ccc2occ(C(=O)c3ccc(N=C(C)N(C)C)cc3)c2c1 | inconclusive: 5.65% | –
51 | O=C(Nc1ccc(Br)cc1)C1CCN(C(=O)c2ccc(F)cc2)CC1 | – | inconclusive: 35.5 µM [fluorescent, single point]
52 | Cc1cc(C)cc(NC(=S)NCCc2c[nH]c3ccccc23)c1 | inconclusive: -46.5% | –
53 | Cc1cccc(N2CCN(C(=O)c3ccc4c(c3)N(Cc3cccc(Cl)c3)C(=O)c3ccccc3S4=O)CC2C)c1 (stereo unspecified) | inconclusive: -27.2% [at 46 µM] | –
54 | COc1cc(OC)c(NC(=O)C(=O)CC(=O)c2ccc(C)cc2C)cc1Cl | inconclusive: 18.6% [at 46 µM] | –
55 | Cc1[nH]c2ccccc2c1SCC(=O)N1CCC(C)CC1 | inconclusive: 15.4% [at 9.22 µM] | –
56 | Cc1ccc(NC(=O)CCC(=O)N2Cc3ccccc3Oc3ncccc32)cc1F | inconclusive: -0.863% [at 46 µM] | –
57 | COc1cccc(C(=O)NC(c2ccccc2)C2CCCC2)c1 (stereo unspecified) | inconclusive: -12.4% [at 46 µM] | –
58 | O=C(O)c1c(CNCc2cccc(F)c2)c2ccccc2n1Cc1ccccc1 | inconclusive: -6.9% [at 46 µM] | –
59 | CCOC(=O)CCCSc1nc2sc3c(c2c(=O)[nH]1)CCC3 | inactive: 7.08% | –
60 | COc1ccc(N(CC(=O)NCc2ccc(Cl)cc2)S(=O)(=O)c2ccccc2[N+](=O)[O-])c(OC)c1 | inconclusive: 6.45% [at 46 µM] | –
61 | C=CCc1cccc(/C=N/NC(=O)CCCNc2ccc(C)cc2)c1O | inconclusive: -47.7% | –
62 | COc1cc(OC)c(NC(=O)N2CCc3cc(OC)c(OC)cc3C2CC(=O)O)cc1Cl (stereo unspecified) | inactive: -4.2% [at 46 µM] | –
63 | COc1ccc(Nc2cc(C)nc3c(C)c(C)ccc23)cc1 | – | inconclusive: 14.1 µM [inhibitor, partial curve, poor fit]

Row | Compound | ratio change, negative = inhibition | Potency
64 | O=C(CC1NCCc2ccccc21)Nc1ccc(Cl)cc1 (stereo unspecified) | inactive: -3.42% [at 46 µM] | –
65 | CCNc1ncc2nc(-c3ccccc3)c(=O)n(CCC#N)c2n1 | inactive: -12.7% | –
66 | CCOc1cccc(OCCOCCn2cnc3ccccc3c2=O)c1 | inconclusive: 17.2% | –
67 | O=C(CNc1cccc(C(F)(F)F)c1)N/N=C/c1cn(-c2ccccc2)nc1-c1ccccc1 | inconclusive: -5.44% | –
68 | CCOC(=O)c1c(NC(=O)C2CCCO2)sc(C(N)=O)c1C (stereo unspecified) | inactive: 0.778% | –
69 | O=C(NCC(c1ccc(Cl)cc1)N1CCCCC1)c1ccccc1F (stereo unspecified) | inconclusive: 9.47% [at 46 µM] | –
70 | COc1ccc(N2C(=O)/C(=C/c3ccc([N+](=O)[O-])cc3)C=C2c2ccccc2)cc1 | inconclusive: 1.55% | –
71 | NC(=O)c1ccc(NC(=O)COC(=O)c2c3c(nc4ccccc24)/C(=C\c2cccs2)CCC3)cc1 | – | inconclusive: 20 µM [inhibitor, partial curve, poor fit]
72 | N/C(=N\OS(=O)(=O)c1ccc2ccccc2c1)c1ccccn1 | inactive: -3.17% [at 46 µM] | –
73 | O=C(c1cccc(S(=O)(=O)N2CCOCC2)c1)N1CCCc2ccccc21 | inactive: -1.07% | –
74 | CCOC(=O)N1CCN(CC(O)COc2ccccc2C(C)C)CC1 (stereo unspecified) | inactive: 3.78% [at 0.0737 µM] | –
75 | Cc1cnccc1CN(C)Cc1cn(C)nc1-c1ccc(Oc2ccccc2)cc1 | inconclusive: 6.13% [at 46 µM] | –
76 | COc1cccc(Cn2c(CNS(=O)(=O)c3ccc(C(C)(C)C)cc3)nc3cccnc32)c1 | inconclusive: -5.06% [at 46 µM] | –
77 | O=S(=O)(Nc1cccc(-c2cn3cccnc3n2)c1)c1ccccc1 | inconclusive: 5.04% | –
78 | CCOC(=O)c1ccc(N=c2sc(C(=O)OC)cc(=O)n2Cc2ccco2)cc1 | inconclusive: 179% | –
79 | COCCNC(=O)CN(c1ccc(C)cc1)S(=O)(=O)c1ccc(SC)cc1 | inactive: 2.28% | –
80 | CN(C)Cc1n[nH]c(=O)c2ccccc12 | inconclusive: 15.5% [at 9.22 µM] | –
81 | CCOC(=O)Cn1c(=O)n(CC2CCCO2)c2nc(-c3ccc(C(C)C)cc3)nc(C(N)=O)c21 (stereo unspecified) | inconclusive: 7.29% [at 46 µM] | –
